{"source": "paper doi:10.1101/2021.08.04.455049", "binders": {"B1": {"name": "Respiratory syncytial virus matrix protein (M) (protein, UniProt P0DOE7 1-256)", "chain": "METYVNKLHEGSTYTAAVQYNVLEKDDDPASLTIWVPMFQSSMPADLLIKELANVNILVKQISTPKGPSLRVMINSRSAVLAQMPSKFTICANVSLDERSKLAYDVTTPCEIKACSLTCLKSKNMLTTVKDLTMKTLNPTHDIIALCEFENIVTSKKVIIPTYLRSISVRNKDLNTLENITTTEFKNAITNAKIIPYSGLLLVITVTDNKGAFKYIKPQSQFIVDLGAYLEKESIYYVTTNWKHTATRFAIKPMED"}}, "biological_target": "Respiratory syncytial virus matrix protein (M) (Human respiratory syncytial virus (strain A2)) (UniProt P0DOE7)", "assay": "cryo-EM structure", "note": "No constants are given. Whether binding was seen depends on the method and setting. Some entries that bind do so weakly or less than the wild type."}
{"binder": "B1", "values": [{"measurement": "binding", "result": "binds"}]}
